Measurements as given in paper PMC7806473.
These are yes or no findings as the source states them, for the method shown. Some results given as binding are weak or reduced against the parent protein; the word gives no strength.

Target: T1, bovine alpha-lactalbumin (α-LA), calcium-depleted (bovine), P00711
T1 chain: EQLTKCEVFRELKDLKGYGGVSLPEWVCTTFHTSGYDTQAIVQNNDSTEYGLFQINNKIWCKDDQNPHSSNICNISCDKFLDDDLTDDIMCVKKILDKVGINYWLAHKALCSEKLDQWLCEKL
Assay: native gel or EMSA; 12% discontinuous native PAGE, stacking gel pH 6.8, resolving gel pH 8.8, Coomassie stain; both purified
Details: remark: other sources report otherwise

binding: binds
B1: bovine alpha-lactalbumin (α-LA), calcium-depleted, P00711 20-142 (natural protein)
chain: EQLTKCEVFRELKDLKGYGGVSLPEWVCTTFHTSGYDTQAIVQNNDSTEYGLFQINNKIWCKDDQNPHSSNICNISCDKFLDDDLTDDIMCVKKILDKVGINYWLAHKALCSEKLDQWLCEKL
